{"source": "PubChem BioAssay AID2685", "about": "(National Center for Advancing Translational Sciences (NCATS), 2010)", "note": "In all, about 320,000 compounds went through this assay and about 2,100 (0.66%) were called active. The inconclusive results got no clear call from the source; some entries with a clear call stand among them for comparison. Calls follow the shape of the dose curve; as a rule, active = well fitted inhibition curve with a large enough effect in the signal ratio, with a control signal flat (not every such curve was filed as active); inconclusive = small, poorly fitted or top-dose-only effect, or effect the other way, or a change in a side signal; inactive = flat fitted curve, though single readings scatter; the % refers to the signal ratio. A potency beside an inconclusive call is a rough fit, not a confirmed value. % is scaled to controls: 0 for no effect and ±100 for the full control effect; potency is read from the fitted curve at half-maximal effect.", "data": [{"experiment": "qHTS Assay for Lipid Storage Modulators in Drosophila S3 Cells", "conditions": "BODIPY lipid droplet fluorescence, 18-24 h, cells fed with added oleic acid; lipid storage change, negative = inhibition: at 46.1 µM (top of the series) unless noted", "summary_of_the_method": "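Drosophila S3 cells got compounds at several concentrations plus oleic acid (400 uM solution). Laser-scanning cytometry with 488 nm excitation read lipid droplets at 500-530 nm and cells at 575-640 nm. Percent activity was relative to 20 uM Triacsin C.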", "values": [{"smiles": "Nc1nc(NCc2ccco2)nc(Nc2ccccc2)c1[N+](=O)[O-]", "Potency": "inconclusive: 29.1 µM [falling, single point]"}, {"smiles": "O=C(COC(=O)Cc1cccc(C(F)(F)F)c1)NC1CCS(=O)(=O)C1", "note": "(stereo unspecified)", "lipid storage change, negative = inhibition": "inconclusive: -17.2%"}, {"smiles": "COc1cc(OC)cc(-c2c(C#Cc3ccsc3)c3cc(-c4ccc5c(c4)OCCO5)ccc3n2C)c1", "lipid storage change, negative = inhibition": "inconclusive: 39.2%"}, {"smiles": "CCCCn1c(N)c(N(CCC(C)C)C(=O)c2ccc([N+](=O)[O-])o2)c(=O)[nH]c1=O", "Potency": "inconclusive: 23.1 µM [falling, single point]"}, {"smiles": "COc1cccc(OCc2nc3ccccc3[nH]2)c1", "lipid storage change, negative = inhibition": "inconclusive: -5.37%"}, {"smiles": "O=C(OCC(=O)N1CCN(C(=O)c2ccco2)CC1)c1ccccc1OCc1ccc(Cl)cc1", "lipid storage change, negative = inhibition": "inconclusive: 15.8%"}, {"smiles": "Cc1nc2ccccc2c(=O)n1CCc1ccc(O)cc1", "lipid storage change, negative = inhibition": "inconclusive: -45.8%"}, {"smiles": "CC1=C(C#N)C(Nc2cccc(C)n2)(C(F)(F)F)C(=O)N1", "note": "(stereo unspecified)", "Potency": "inconclusive: 1.84 µM [falling, partial curve]"}, {"smiles": "O=C(Cc1cccc2ccccc12)Nc1ccc2oc(-c3ccccc3)nc2c1", "Potency": "inconclusive: 2.31 µM [activator, partial curve]"}, {"smiles": "O=C(CNC(=O)c1ccco1)NCc1nc2ccccc2[nH]1", "lipid storage change, negative = inhibition": "inconclusive: 15.2%"}, {"smiles": "O=C(O)c1cccc(N2C(=O)C3CC=C(Cl)CC3C2=O)c1", "note": "(stereo unspecified)", "Potency": "inconclusive: 20.6 µM [activator, single point]"}, {"smiles": "O=C(Nc1ccccc1)c1ccc(Br)c(S(=O)(=O)Nc2cccnc2)c1", "Potency": "inconclusive: 13 µM [activator, single point]"}, {"smiles": "NC(=O)Cn1nc([N+](=O)[O-])nc1Oc1ccccc1C(=O)N1CCOCC1", "Potency": "active: 14.6 µM"}, {"smiles": "CCCCOC(=O)NC1CCS(=O)(=O)C1", "note": "(stereo unspecified)", "lipid storage change, negative = inhibition": "inconclusive: -38.3%"}, {"smiles": "CCN(CC)S(=O)(=O)c1cccc2nsnc12", "lipid storage change, negative = inhibition": "inconclusive: -36.5%"}, {"smiles": "CC(Cc1ccccc1)NC(=O)CSc1nc2nc3c(cc2c(=O)n1-c1ccccc1)COC(C)(C)C3", "note": "(stereo unspecified)", "lipid storage change, negative = inhibition": "inconclusive: 77.8%"}, {"smiles": "O=C(c1cnn2c(C(F)(F)F)cc(-c3cccs3)nc12)N1CCCC1", "lipid storage change, negative = inhibition": "inconclusive: 28.6%"}, {"smiles": "CCC(CC)COC(=O)C1=C(C)NC(=O)NC1c1ccc([N+](=O)[O-])cc1", "note": "(stereo unspecified)", "Potency": "inconclusive: 29.1 µM [falling, single point]"}, {"smiles": "COc1cc(S(=O)(=O)N2CCCCCC2)ccc1-n1cnnn1", "Potency": "inconclusive: 4.11 µM [falling, single point]"}, {"smiles": "Cc1ccc(C(=O)c2ccccc2C(=O)OCC(=O)N2C(C)CCCC2C)cc1", "note": "(stereo unspecified)", "lipid storage change, negative = inhibition": "inconclusive: -69.7%"}, {"smiles": "COc1ccccc1CCNC(=O)C(=O)Nc1cc2c3c(c1)C(C)C(=O)N3CCC2", "note": "(stereo unspecified)", "lipid storage change, negative = inhibition": "inconclusive: -32.2% [at 0.0737 µM]"}, {"smiles": "COc1ccc(CC2S/C(=C(\\C#N)C(=O)NCc3ccco3)N(c3ccc(C)cc3)C2=O)cc1", "note": "(stereo unspecified)", "Potency": "inconclusive: 29.1 µM [activator, single point]"}, {"smiles": "COCCOC1CCN(C(=O)c2ccc(OC)c(OC3CCN(C(C)C)CC3)c2)CC1", "Potency": "inconclusive: 6.51 µM [falling, single point]"}, {"smiles": "COc1cc(C(=O)N2CCN(c3ccccc3Cl)CC2)ccc1OCC(=O)N1CCOCC1", "Potency": "inconclusive: 0.0046 µM [falling, full curve, poor fit]"}, {"smiles": "Cc1cccc(NC(=O)C2C3CCCCC32)c1", "note": "(stereo unspecified)", "lipid storage change, negative = inhibition": "inconclusive: 28.9%"}, {"smiles": "O=C(CCN1C(=O)c2ccccc2C1=O)Nc1ccc(F)cc1F", "lipid storage change, negative = inhibition": "inactive"}, {"smiles": "COC(=O)c1cccc(NC(=O)CC2NCCNC2=O)c1", "note": "(stereo unspecified)", "lipid storage change, negative = inhibition": "inconclusive: -15.6%"}, {"smiles": "CCOC(=O)CNc1ncnc2nc[nH]c12", "lipid storage change, negative = inhibition": "inconclusive: 17.8%"}, {"smiles": "CC(=O)Nc1c(C#N)c(C(C)(C)C)cn1C", "Potency": "inconclusive: 0.291 µM [falling, full curve, poor fit]"}, {"smiles": "O=C(OCc1nnc(-c2ccccc2)o1)c1cc(S(=O)(=O)N2CCOCC2)ccc1F", "lipid storage change, negative = inhibition": "inactive"}, {"smiles": "O=C(Cn1c(=O)cnc2ccccc21)NNC(=O)c1ccc(Cl)cc1", "Potency": "inconclusive: 32.6 µM [activator, single point]"}, {"smiles": "O=C(Nc1ccccc1)c1ccc(OC(=O)c2cc3ccccc3o2)cc1", "Potency": "inconclusive: 1.3 µM [falling, full curve]"}, {"smiles": "Cc1ccc2oc(C(=O)Nc3cc(C)on3)c(C)c2c1", "Potency": "inconclusive: 0.58 µM [activator, full curve]"}, {"smiles": "COc1ccc(S(=O)(=O)N2CCCCC2)cc1NC(=O)c1ccc(N2CCCC2=O)cc1", "lipid storage change, negative = inhibition": "inconclusive: 10.4%"}, {"smiles": "Cc1ccc(S(=O)(=O)CCSc2ccc(C(F)(F)F)cn2)cc1", "lipid storage change, negative = inhibition": "inactive"}, {"smiles": "Cc1ccc(Sc2ncccc2COC(=O)NC(C)C)cc1", "Potency": "inconclusive: 29.1 µM [rising, single point]"}, {"smiles": "CC(C)CN(C(=O)COC(=O)c1ccc([N+](=O)[O-])s1)c1c(N)n(Cc2ccccc2)c(=O)[nH]c1=O", "lipid storage change, negative = inhibition": "inconclusive"}, {"smiles": "CC(C)(C)N(Cc1ccccc1)C(=O)c1ccncc1", "lipid storage change, negative = inhibition": "inconclusive: 85.3%"}, {"smiles": "CC(=O)c1ccc(S(=O)(=O)Nc2c(C)nn(C)c2C)cc1", "lipid storage change, negative = inhibition": "inconclusive"}, {"smiles": "C[C@@H](NC(=O)[C@@H]1Cc2ccccc2CN1C(=O)OC(C)(C)C)C(=O)NC1CCCC1", "lipid storage change, negative = inhibition": "inconclusive: -77.6%"}, {"smiles": "CC(=O)N1CCN(Cc2nc(-c3cccc(Cl)c3)no2)CC1", "lipid storage change, negative = inhibition": "inconclusive: 31.6%"}, {"smiles": "CC(NC(=S)Nc1ccc(OC(F)F)cc1OC(F)F)C(C)(C)C", "note": "(stereo unspecified)", "Potency": "inconclusive: 7.31 µM [falling, partial curve, poor fit]"}, {"smiles": "CCCCCCCCO", "lipid storage change, negative = inhibition": "inconclusive: 13%"}, {"smiles": "Cc1ccc(/C=N/NC(=O)c2nnn(-c3nonc3N)c2CSc2ccccc2)cc1", "Potency": "inconclusive: 0.0058 µM [rising, full curve, poor fit]"}, {"smiles": "CCn1c(Cc2cccs2)nnc1SCC(=O)Nc1ccc(OC)c(OC)c1", "Potency": "inconclusive: 5.8 µM [activator, partial curve]"}, {"smiles": "O=C(Cn1nc(-c2ccccc2F)ccc1=O)NCc1ccc2c(c1)OCO2", "Potency": "inconclusive: 2.59 µM [rising, full curve, poor fit]"}, {"smiles": "CC(C)c1ccc(NC2CCCN(C(=O)c3cccs3)C2)cc1", "note": "(stereo unspecified)", "Potency": "inconclusive: 29.1 µM [falling, single point]"}, {"smiles": "Cc1ccc(-n2nnnc2-c2cnn(-c3ccc(F)cc3)c2C(F)(F)F)cc1", "lipid storage change, negative = inhibition": "inconclusive: -28.5%"}, {"smiles": "OCCNCCCOc1cc(Cl)ccc1Cl", "lipid storage change, negative = inhibition": "inconclusive: 12.9%"}, {"smiles": "COCCNC(=O)/C(C#N)=C1\\N=C(N)c2ccccc21", "lipid storage change, negative = inhibition": "inconclusive: -4.68%"}, {"smiles": "O=C(c1cc(COc2ccc(F)cc2Cl)on1)N1CC[C@@H]2CCCC[C@H]2C1", "lipid storage change, negative = inhibition": "inconclusive: -85.6%"}, {"smiles": "CCc1nnc(NC(=O)CN2CCOCC2)s1", "lipid storage change, negative = inhibition": "inconclusive: -12.7%"}, {"smiles": "CC(C)NC(=O)c1ccc(S(=O)(=O)N(C)C)cc1", "lipid storage change, negative = inhibition": "inconclusive: -47.6% [at 0.00295 µM]"}, {"smiles": "COc1ccc(S(=O)(=O)N2CCC(NC(=O)c3cccnc3)CC2)cc1", "lipid storage change, negative = inhibition": "inconclusive: -17.5%"}, {"smiles": "c1ccc2c(CCNc3ncnc4nc[nH]c34)cccc2c1", "lipid storage change, negative = inhibition": "inconclusive: -26.5%"}, {"smiles": "Cc1ccc(-n2c(SCC(=O)c3c(N)n(C4CC4)c(=O)[nH]c3=O)nnc2N2CCOCC2)cc1", "lipid storage change, negative = inhibition": "inconclusive"}, {"smiles": "Cn1nnc2cc(C(=O)NCc3ccc4c(c3)OCO4)ccc21", "Potency": "inconclusive: 1.64 µM [activator, full curve]"}, {"smiles": "O=C(Nc1ccc(S(=O)(=O)N2CCOCC2)cc1)c1ccc([N+](=O)[O-])o1", "lipid storage change, negative = inhibition": "inconclusive: -57.5%"}, {"smiles": "Cc1ccccc1NC(=O)Cn1cccc1", "lipid storage change, negative = inhibition": "inconclusive: 23%"}, {"smiles": "COc1ccc2nc(C)cc(Nc3cccc(C(=O)O)c3)c2c1", "Potency": "inconclusive: 32.6 µM [activator, single point]"}, {"smiles": "Cc1cccc2sc(N(CCCN(C)C)C(=O)CCS(=O)(=O)c3ccccc3)nc12", "Potency": "inconclusive: 6.51 µM [activator, single point]"}, {"smiles": "Cc1nc(N2CCN(Cc3ccc4c(c3)OCO4)CC2)[nH]c(=O)c1C", "lipid storage change, negative = inhibition": "inconclusive: 489%"}, {"smiles": "COc1ccc(-n2cc(C#N)c(=O)n(Cc3ccc(F)cc3)c2=O)cc1", "lipid storage change, negative = inhibition": "inconclusive: 38%"}, {"smiles": "COc1ccc(COC(=O)NNC(=O)c2ccccc2Cl)cc1", "lipid storage change, negative = inhibition": "inconclusive: 70.2%"}, {"smiles": "Cc1cc(C)n2nc(SCC(=O)N/N=C/c3cccc(Br)c3)nc2n1", "Potency": "inconclusive: 2.31 µM [activator, partial curve]"}, {"smiles": "Cc1ccccc1-c1nn2c(-c3ccccc3)nnc2s1", "lipid storage change, negative = inhibition": "inconclusive: -4.13%"}, {"smiles": "Cc1cccc(NC2=NC(C)(C)N=C(N)N2)c1C", "lipid storage change, negative = inhibition": "inconclusive: -41.1%"}, {"smiles": "COc1ccc(C(=O)/C=C2/Sc3cc4c(cc3N2C)OCO4)cc1", "lipid storage change, negative = inhibition": "inconclusive: 17.6%"}, {"smiles": "CCCc1cc(=O)[nH]c(Nc2ccc(N3CCCCC3)cc2)n1", "lipid storage change, negative = inhibition": "inconclusive: 34.2%"}, {"smiles": "COCCCn1cnnc1SCc1nc2sc(C(C)=O)c(C)c2c(=O)[nH]1", "lipid storage change, negative = inhibition": "inconclusive: -17.3%"}, {"smiles": "CC(C)(C)c1nnc2sc(SC/C(O)=C(\\C#N)c3nc4ccccc4[nH]3)nn2c1=O", "Potency": "inconclusive: 32.6 µM [activator, single point]"}, {"smiles": "CCOC(=O)C1=C(CSc2nc3c(cc2C#N)CN(C)CC3)OC(N)=C(C#N)C1c1ccc(F)cc1", "note": "(stereo unspecified)", "lipid storage change, negative = inhibition": "inconclusive: 36.5%"}, {"smiles": "CC1=NN(c2ccccc2C(=O)O)C(=O)C1N=Nc1ccccc1", "note": "(stereo unspecified)", "Potency": "inconclusive: 18.4 µM [falling, single point]"}, {"smiles": "O=C(Nc1nc(-c2ccc(Cl)cc2Cl)cs1)c1ccc(OCC2CCCO2)cc1", "note": "(stereo unspecified)", "lipid storage change, negative = inhibition": "inconclusive: -33.6%"}, {"smiles": "COc1ccc(CCNC(=O)c2ccc(=O)[nH]n2)cc1OC", "lipid storage change, negative = inhibition": "inconclusive: -40.7%"}, {"smiles": "Cc1c(NC(=O)Nc2cccc([N+](=O)[O-])c2)c(=O)n(-c2ccccc2)n1C", "Potency": "inconclusive: 29.1 µM [activator, single point]"}]}]}
